Test results taken from US20200276303A1, “Combination Therapies and Uses for Treatment of Demyelinating Disorders” (Biogen MA Inc., priority 2012, published 2020).
For at least one compound, name, drawing or mass did not settle the structure.

Assays:
[1] = relapsing-remitting multiple sclerosis; cited from earlier work
optic nerve in rat EAE = test: Rat EAE: optic nerve axon quantification by anti-βIII tubulin staining; assay type: in vivo, Brown Norway (BN) rats

SMILES	Reduction of the rate of relapses [1]	Number of axons in optic nerve versus control treatment group, in words (optic nerve in rat EAE; MP 30 mg/kg/day i.v. for three days + control antibody, p value non significant)	Axonal protection in the optic nerve in rat EAE (optic nerve in rat EAE; summary of treatment groups)
CCCCCCCCc1ccc(CCC(N)(CO)CO)cc1 [Fingolimod]	over half	–	–
C[C@H]1C[C@@H]2[C@H]([C@@H](O)C[C@@]3(C)[C@H]2CC[C@]3(O)C(=O)CO)[C@@]2(C)C=CC(=O)C=C12 [MP, methylprednisolone]	–	slightly higher	not seen
